# “And” between values parts separate entries of the source, which are not always exact repeats. Identical values can stand only once. The list shows a part of the results. Each value is one well over the wells without odorant, computed here; the data are noisy.
# Columns and labels:
# Assay in all cases: odorant receptor activation (CRE luciferase / Renilla) (fold of no-odor wells); higher = more activation
# Conditions in all cases: 100 µM
# OR5AN1 clone 1245 = test system: OR5AN1 clone 1245
# OR5AP2 clone 1209 = test system: OR5AP2 clone 1209
# OR5AR1 clone 1207 = test system: OR5AR1 clone 1207
# OR5AS1 clone 1135 = test system: OR5AS1 clone 1135
# [1] = test system: OR5AU1 L66F/I248V clone 1421
# OR5AU1 clone 1344 = test system: OR5AU1 clone 1344
# OR5B17 clone 1220 = test system: OR5B17 clone 1220
# OR5B2 M200T clone 1246 = test system: OR5B2 M200T clone 1246
# OR5B21 I279F clone 1482 = test system: OR5B21 I279F clone 1482
# OR5B3 clone 1138 = test system: OR5B3 clone 1138
# OR5C1 clone 1425 = test system: OR5C1 clone 1425
# OR5D14 clone 1230 = test system: OR5D14 clone 1230
# OR5D18 N136D clone 1203 = test system: OR5D18 N136D clone 1203
# OR5F1 S294N clone 1148 = test system: OR5F1 S294N clone 1148
# [2] = test system: OR5H1 I153L/T181I clone 1473
# OR5H1 clone 1471 = test system: OR5H1 clone 1471
# [3] = test system: OR5H14 G64R/Y189C clone 1472
# [4] = test system: OR5H2 E11Q/I225V/I281V clone 1466
# OR5H2 clone 1055 = test system: OR5H2 clone 1055
# OR5H6 clone 1056 = test system: OR5H6 clone 1056
Compound,odorant receptor activation (OR5AN1 clone 1245),odorant receptor activation (OR5AP2 clone 1209),odorant receptor activation (OR5AR1 clone 1207),odorant receptor activation (OR5AS1 clone 1135),odorant receptor activation [1],odorant receptor activation (OR5AU1 clone 1344),odorant receptor activation (OR5B17 clone 1220),odorant receptor activation (OR5B2 M200T clone 1246),odorant receptor activation (OR5B21 I279F clone 1482),odorant receptor activation (OR5B3 clone 1138),odorant receptor activation (OR5C1 clone 1425),odorant receptor activation (OR5D14 clone 1230),odorant receptor activation (OR5D18 N136D clone 1203),odorant receptor activation (OR5F1 S294N clone 1148),odorant receptor activation [2],odorant receptor activation (OR5H1 clone 1471),odorant receptor activation [3],odorant receptor activation [4],odorant receptor activation (OR5H2 clone 1055),odorant receptor activation (OR5H6 clone 1056)
CCCCCC(=O)O [caproic acid],0.817,0.935,1.23,1.07,0.367,0.763,0.953,0.874,0.961,1.3,0.308,1.08,0.835,1,0.884,0.866,0.854,0.799,1.08,0.947
COc1cc(C=O)ccc1O [vanillin],0.852,0.942,1.01,1.08,1.04,0.833,0.941,0.957,1.12,1.32,0.893,1.08,1.04,1.05,0.988,0.976,0.944,0.844,1.24,1.02
CC1COCc2cc3c(cc21)C(C)(C)C(C)C3(C)C (stereo not drawn) [galaxolide],,1.17,3.26,0.772,2.62,2.25 and 1.36,1.2,1.64 and 4.09,,0.887,2.34,0.972,0.967,4.29,,2.66 and 3.82,1.11 and 3.04,,3.66,4.62
CC(C)=CCCC(C)=CC=O [citral],1.1,0.95,1.11,1.02,0.446,0.897,1.09,1.42,1.09,1.15,0.391,1.13,1.09,1.18,0.822,1.18,1.07,1.08,1.37,1.27
CCCCCCCCC=O [nonyl aldehyde],0.979,1.21,1.25,0.906,0.87,0.958,0.859,1.04,1.23,1,0.803,1.05,0.977,0.894,1.01,1.02,1.06,1.05,0.917,1.08
CC1=NC(C)SC1C (stereo not drawn),0.733,0.896,0.944,1.07,0.867,0.663,1.04,2.41,1.2 and 0.997,1.25,1.1,,0.716,0.655,1.26 and 1.21,0.725 and 0.942,1.37 and 0.726,0.839 and 1.04,1.14,1.03
CCCCCCCCOC(C)=O [octyl acetate],1.02,1.07,1.36,1.01,0.741,0.975,0.818,0.962,0.935,0.983,0.779,1.15,1.1,1.01,0.847,1.14,0.97,0.888,1.04,1.03
CCC1(O)C2(C)CCC(C2)C1(C)C (stereo not drawn) [2-ethylfenchol],1.07,0.648,1.18,1.31,1.1,0.841,1.14,1.4,0.959,0.986,0.865,1.17,1.05,1.58,1.15,1.33,1.43,1.17,2.79,3.13
CCCCCCC=O [heptaldehyde],,,0.46 and 1.03,,0.765 and 0.839,0.533 and 1.13 and 1.11,0.247 and 0.627,0.521 and 0.741 and 0.91,,0.443 and 0.959,0.845 and 1.04,1.28,,0.354 and 1.05,,,,,1.28 and 1.03,1.69 and 1.34
CC(C)(C)c1ccc(CCC=O)cc1 [bourgeonal],0.7,0.625,0.732,0.861,0.308,0.525,0.663,0.826,0.886,0.73,0.419,0.803,0.57,0.78,0.712,1.24,0.852,1.17,1.2,0.854
CC(C)C=O [isobutyraldehyde],1.04 and 1.1,0.892,1.11,1.03,0.889,1.47 and 1.18,0.778,0.851 and 0.889,1.05 and 1.19,1.09,0.715,1.2,1,1.16,0.95 and 1.08,0.816 and 0.932,0.958 and 0.959,0.977 and 0.957,0.842,1.07
CC12C=CCC1C1CCC3=CC(=O)CCC3(C)C1CC2 (stereo not drawn) [androstadienone],,1.02,1.28,0.936,0.952,1.1 and 1.02,1.02,1.23 and 1.07,0.875 and 1.43,1.19,1.11,0.978,0.949,1.3,1.11 and 1.21,0.859 and 1.15,0.886 and 1.28,1.14 and 1.32,1.23,1.94
CC(=O)OC1CC2CCC1(C)C2(C)C (stereo not drawn) [isobornyl acetate],0.963 and 0.898,0.957,1.38,1.19,0.914,1.47 and 1.2,1.04,1.09 and 0.878,0.908 and 1.24,1.2,1.07,1.2,1.15,1.13,0.956 and 1.1,0.664 and 1.06,0.854 and 1.08,0.952 and 1.31,0.803,1.06
CC/C=C\CCO [cis-3-hexen-1-ol],0.766,0.869,0.932,1.21,0.458,0.799,1.02,0.979,0.922,1.08,0.393,1.21,0.779,0.988,0.762,1.11,0.952,0.986,1.11,1
C=CC(C)(O)CCC=C(C)C (stereo not drawn) [linalool],0.838,1.07,1.06,0.887,0.923,0.888,0.925,1.1,1.04,0.823,0.979,1.03,1.2,0.949,0.922,1.15,0.908,1.03,1.14,1.23
c1cnccn1 [pyrazine],0.668,0.878,0.872,1.02,1.29,0.838,0.872,0.587,1.01,1.09,1.18,0.948,0.949,1.11,0.834,1.09,0.753,0.85,1.05,0.836
C=CCc1ccc(O)c(OC)c1 [eugenol],1.24 and 1.25,2.42 and 1.41,1.17 and 1.46,,1.02 and 1.44,1.78 and 1.18,1.78 and 1.05,2.19 and 1.12,1.86 and 1.24 and 1.21,2.96 and 1.33,1.3 and 1.11,1.25,1.85 and 1.16,1.82 and 1.35,1.46 and 1.97 and 1.08,1.41 and 1.21 and 1.29,2.57 and 1.05 and 1.24,1.31 and 1.26 and 1.13,0.913 and 1.46,2.29 and 1.75
"CC1CCC(C(C)C)C(O)C1 (single isomer, unassigned; (+)) [(+)-menthol]",0.76,0.855,1.36,1.37,1.14,0.926,1.21,0.908,1.04,1.32,0.847,1.63,0.899,1.38,0.898,1.18,0.998,1.11,2.9,3.03
CCCCCCOC(=O)CCC [hexyl butyrate],1.19 and 1.1,1.06,1.17,1.02,0.955,1.34 and 0.931,1.2,1.08 and 0.816,1.11 and 0.901,1.07,1.05,1.27,1.24,1.37,1.09 and 1.07,0.762 and 1.18,1.04 and 0.906,1.1 and 0.839,1.1,0.831
CC=Cc1ccc(O)c(OC)c1 [isoeugenol],1.22 and 3.11,1.23,1.85,0.982,1.45,1.57 and 1.17,0.828,0.99 and 2,1.04 and 2.26,1.42,1.25,1.21,1.03,1.36,0.954 and 2.2,0.975 and 1.87,0.913 and 1.92,1.09 and 2.88,1.02,2.22
CCCCCOC(C)=O [n-amyl acetate],0.511,0.513,0.635,0.714,0.771,0.422,0.565,0.688,0.546 and 0.914,0.852,0.788,,0.458,0.585,0.64 and 1.14,0.467 and 0.766,0.655 and 0.657,0.427 and 1.06,1.59,1.6
COC(=O)c1ccccc1 [methyl benzoate],0.41,0.867,0.803,1.42,0.864,0.577,0.703,0.779,0.699 and 1.18,1.56,0.921,,0.662,0.789,0.734 and 1.14,0.489 and 0.906,0.825 and 0.683,0.428 and 1.25,1.75,1.69
O=C1CCCCC1 [Cyclohexanone],0.22,0.817,0.861,1.63,0.783,0.641,0.911,0.419,0.623 and 0.89,0.766,0.873,,0.791,0.65,0.562 and 1.03,0.571 and 0.902,0.828 and 0.684,0.438 and 1.01,0.766,0.875
CC(C)C(=O)O [isobutyric acid],1.04 and 1,1.03,1.11,0.802,0.818,0.99 and 1.2,0.831,1.16 and 0.792,0.808 and 0.981,0.991,0.808,1.2,1.27,1.32,0.907 and 0.916,0.982 and 0.904,0.806 and 0.974,1.21 and 1.14,1.62,1
C=C(C)C1CC=CCC1 (stereo not drawn) [r-limonene],0.757 and 0.433,1.06 and 0.39,1.02 and 0.584,1.19 and 0.612,1.48 and 0.907,0.681 and 0.418,0.984 and 0.509,0.728 and 0.496,1.03 and 0.561 and 0.808,1.09 and 0.647,1.26 and 0.845,1.05,,1.24 and 0.524,1.05 and 0.706 and 1.12,1.13 and 0.452 and 0.901,0.898 and 0.683 and 0.628,0.852 and 0.431 and 1.04,1.3 and 1.84,1.32 and 1.24
CCCCCC(C)=O [2-heptanone],1.08,0.811,1.22,1.34,0.807,0.9,0.967,1.64,0.695 and 0.699,1.42,0.879,,0.949,0.999,0.992 and 0.726,0.671 and 0.5,1.06 and 0.602,0.908 and 0.719,0.606,1.36
O=C1CCCCCCCCCCCC(=O)OCCO1 [ethylene brassylate],2.6,1.91,1.87,1.61,1.67,1.4,1.44,1.48,1.43,1.75,1.29,2.14,2,1.63,1.33,1.62,1.94,2.21,1.41,1.48
CC(=O)C(C)=O [diacetyl],1.1,1.17,1.44,1.3,1.38,1.01,0.889,0.995,1.43,1.11,0.832,1.12,1.06,1.21,1.02,1.15,1.48,1.47,0.994,1.39
CC(=O)c1ccccc1 [acetophenone],1.5,1.02,1.25,1.25,0.917,0.897,1.08,1.37,0.801 and 0.861,1.46,1.05,,1.2,1.32,1.33 and 0.776,0.765 and 0.637,1.04 and 0.511,1.27 and 0.828,0.905,1.15

# Reference: the odorant receptor screen of Mainland et al. (2015)
